Results are given in words; binding and its absence hold for the method and conditions named. Some results given as binding are weak or reduced against the parent protein; the word gives no strength.
Biological target: recombinant TA (assembly) domain of human tenascin-C (human) (UniProt P24821)
Assay: self-association of the refolded TA domain; method not described

Amino acid sequences for entries named in this document (tags omitted). Residues count along the entry.
UniProt P24821, residues 23-173: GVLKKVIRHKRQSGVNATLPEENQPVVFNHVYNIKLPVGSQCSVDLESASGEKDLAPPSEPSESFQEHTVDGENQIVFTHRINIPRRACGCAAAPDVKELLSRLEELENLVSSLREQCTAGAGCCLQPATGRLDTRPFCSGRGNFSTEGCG

In the case of “recombinant TA (assembly) domain of human tenascin-C (from UniProt P24821 23-173)”, the binding is reported as “binds”.
